{
  "sequences": {"note": "Sequences of proteins named here, by UniProt entry; tags and fusion partners are left off. A change or cut given only in a name is not applied to a line headed by its entry.", "UniProt Q8CG50": "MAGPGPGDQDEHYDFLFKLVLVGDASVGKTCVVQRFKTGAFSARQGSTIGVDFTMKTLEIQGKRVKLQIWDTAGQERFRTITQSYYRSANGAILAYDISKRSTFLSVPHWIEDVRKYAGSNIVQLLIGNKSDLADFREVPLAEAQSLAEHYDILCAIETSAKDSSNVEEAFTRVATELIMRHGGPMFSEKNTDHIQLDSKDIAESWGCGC", "UniProt Q8CFV9": "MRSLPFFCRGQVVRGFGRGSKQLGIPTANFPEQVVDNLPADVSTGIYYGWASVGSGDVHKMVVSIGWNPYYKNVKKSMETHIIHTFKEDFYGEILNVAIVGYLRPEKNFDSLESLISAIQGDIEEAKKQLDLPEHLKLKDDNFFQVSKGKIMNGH", "UniProt Q8CGY8": "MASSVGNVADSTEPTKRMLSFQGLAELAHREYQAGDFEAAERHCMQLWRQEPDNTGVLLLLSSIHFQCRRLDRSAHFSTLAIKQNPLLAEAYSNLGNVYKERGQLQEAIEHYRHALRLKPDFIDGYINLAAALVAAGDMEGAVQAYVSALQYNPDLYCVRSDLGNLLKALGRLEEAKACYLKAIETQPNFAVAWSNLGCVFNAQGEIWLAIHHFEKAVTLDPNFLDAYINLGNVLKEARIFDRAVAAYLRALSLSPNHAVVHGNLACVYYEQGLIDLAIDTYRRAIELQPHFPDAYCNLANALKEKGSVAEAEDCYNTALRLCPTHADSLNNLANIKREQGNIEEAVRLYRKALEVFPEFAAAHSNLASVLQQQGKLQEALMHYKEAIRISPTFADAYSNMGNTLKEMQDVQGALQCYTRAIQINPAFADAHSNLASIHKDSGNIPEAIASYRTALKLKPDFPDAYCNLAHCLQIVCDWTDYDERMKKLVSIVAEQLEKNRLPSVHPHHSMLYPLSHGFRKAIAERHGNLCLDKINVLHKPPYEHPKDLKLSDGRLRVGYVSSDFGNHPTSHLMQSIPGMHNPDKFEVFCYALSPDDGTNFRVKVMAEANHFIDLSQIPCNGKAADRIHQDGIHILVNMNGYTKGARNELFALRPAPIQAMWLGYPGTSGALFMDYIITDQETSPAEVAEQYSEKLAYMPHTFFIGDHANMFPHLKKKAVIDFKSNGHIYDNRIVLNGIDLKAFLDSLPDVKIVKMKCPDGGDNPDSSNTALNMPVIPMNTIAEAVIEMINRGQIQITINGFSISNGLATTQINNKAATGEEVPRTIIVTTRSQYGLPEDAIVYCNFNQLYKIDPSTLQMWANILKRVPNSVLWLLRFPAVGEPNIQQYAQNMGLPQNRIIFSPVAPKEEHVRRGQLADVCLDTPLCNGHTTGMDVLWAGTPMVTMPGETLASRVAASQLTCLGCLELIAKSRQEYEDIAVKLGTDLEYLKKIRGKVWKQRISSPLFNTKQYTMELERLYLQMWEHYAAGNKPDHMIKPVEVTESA", "UniProt Q8CI12": "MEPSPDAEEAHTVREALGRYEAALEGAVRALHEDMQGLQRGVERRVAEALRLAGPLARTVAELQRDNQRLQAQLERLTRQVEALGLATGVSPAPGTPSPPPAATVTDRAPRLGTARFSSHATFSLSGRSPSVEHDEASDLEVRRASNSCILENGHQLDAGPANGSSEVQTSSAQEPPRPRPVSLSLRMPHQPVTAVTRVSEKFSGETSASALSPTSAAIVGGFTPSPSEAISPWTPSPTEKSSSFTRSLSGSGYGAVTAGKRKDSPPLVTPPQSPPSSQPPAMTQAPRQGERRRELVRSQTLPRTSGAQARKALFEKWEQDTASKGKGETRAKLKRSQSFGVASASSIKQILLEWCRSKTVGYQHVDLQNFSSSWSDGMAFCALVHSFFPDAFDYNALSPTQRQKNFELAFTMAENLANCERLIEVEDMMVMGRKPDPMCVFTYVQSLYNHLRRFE", "UniProt Q8CFH6": "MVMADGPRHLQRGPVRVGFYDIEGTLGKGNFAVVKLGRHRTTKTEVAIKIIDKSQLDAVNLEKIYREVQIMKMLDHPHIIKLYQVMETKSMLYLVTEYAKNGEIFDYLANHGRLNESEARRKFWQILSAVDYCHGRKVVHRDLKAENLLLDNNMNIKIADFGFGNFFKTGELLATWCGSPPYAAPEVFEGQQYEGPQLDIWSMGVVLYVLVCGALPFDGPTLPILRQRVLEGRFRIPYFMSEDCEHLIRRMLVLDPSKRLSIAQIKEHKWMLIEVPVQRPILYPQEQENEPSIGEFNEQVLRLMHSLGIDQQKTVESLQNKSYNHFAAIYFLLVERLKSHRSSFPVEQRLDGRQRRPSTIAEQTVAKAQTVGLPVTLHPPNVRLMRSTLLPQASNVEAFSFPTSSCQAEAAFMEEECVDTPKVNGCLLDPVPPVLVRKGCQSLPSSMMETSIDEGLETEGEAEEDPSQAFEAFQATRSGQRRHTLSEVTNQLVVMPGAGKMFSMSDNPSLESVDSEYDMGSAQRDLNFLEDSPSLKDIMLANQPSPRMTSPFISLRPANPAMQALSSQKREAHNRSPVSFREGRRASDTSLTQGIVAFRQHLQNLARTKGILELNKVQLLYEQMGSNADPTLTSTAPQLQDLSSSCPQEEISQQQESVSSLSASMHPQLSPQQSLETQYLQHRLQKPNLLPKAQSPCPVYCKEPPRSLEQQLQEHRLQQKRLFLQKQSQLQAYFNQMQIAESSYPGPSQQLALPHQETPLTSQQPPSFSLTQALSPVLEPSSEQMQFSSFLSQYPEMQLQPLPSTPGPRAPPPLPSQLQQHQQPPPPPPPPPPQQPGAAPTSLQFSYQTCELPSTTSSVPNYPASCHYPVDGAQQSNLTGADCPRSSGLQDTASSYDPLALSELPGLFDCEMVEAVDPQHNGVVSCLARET", "UniProt Q8K0E8": "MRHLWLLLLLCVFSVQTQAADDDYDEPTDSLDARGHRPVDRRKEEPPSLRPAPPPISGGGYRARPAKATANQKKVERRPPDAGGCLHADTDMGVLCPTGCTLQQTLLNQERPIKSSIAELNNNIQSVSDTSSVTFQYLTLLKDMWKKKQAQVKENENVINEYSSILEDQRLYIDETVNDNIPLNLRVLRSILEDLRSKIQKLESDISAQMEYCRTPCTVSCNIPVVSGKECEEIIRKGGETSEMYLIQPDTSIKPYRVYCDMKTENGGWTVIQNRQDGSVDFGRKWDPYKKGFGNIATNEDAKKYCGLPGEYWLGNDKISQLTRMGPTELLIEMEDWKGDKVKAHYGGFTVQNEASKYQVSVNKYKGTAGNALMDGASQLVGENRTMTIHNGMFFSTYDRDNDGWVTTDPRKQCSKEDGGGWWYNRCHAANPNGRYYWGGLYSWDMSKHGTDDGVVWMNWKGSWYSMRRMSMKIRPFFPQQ", "UniProt Q8CJ67": "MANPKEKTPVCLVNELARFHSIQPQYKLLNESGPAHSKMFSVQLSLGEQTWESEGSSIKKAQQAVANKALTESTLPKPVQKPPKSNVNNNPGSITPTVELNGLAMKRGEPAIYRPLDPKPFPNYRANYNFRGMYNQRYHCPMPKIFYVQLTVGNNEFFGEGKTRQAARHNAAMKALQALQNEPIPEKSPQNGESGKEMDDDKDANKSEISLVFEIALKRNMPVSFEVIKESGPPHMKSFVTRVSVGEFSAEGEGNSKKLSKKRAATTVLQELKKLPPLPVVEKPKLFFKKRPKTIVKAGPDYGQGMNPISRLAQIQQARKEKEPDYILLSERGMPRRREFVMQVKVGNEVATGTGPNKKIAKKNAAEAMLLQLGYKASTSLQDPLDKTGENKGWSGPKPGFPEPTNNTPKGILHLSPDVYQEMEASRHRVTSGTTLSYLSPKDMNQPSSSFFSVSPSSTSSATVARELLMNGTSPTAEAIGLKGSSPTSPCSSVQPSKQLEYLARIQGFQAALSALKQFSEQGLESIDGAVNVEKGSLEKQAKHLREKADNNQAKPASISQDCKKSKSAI", "UniProt Q8CIF4": "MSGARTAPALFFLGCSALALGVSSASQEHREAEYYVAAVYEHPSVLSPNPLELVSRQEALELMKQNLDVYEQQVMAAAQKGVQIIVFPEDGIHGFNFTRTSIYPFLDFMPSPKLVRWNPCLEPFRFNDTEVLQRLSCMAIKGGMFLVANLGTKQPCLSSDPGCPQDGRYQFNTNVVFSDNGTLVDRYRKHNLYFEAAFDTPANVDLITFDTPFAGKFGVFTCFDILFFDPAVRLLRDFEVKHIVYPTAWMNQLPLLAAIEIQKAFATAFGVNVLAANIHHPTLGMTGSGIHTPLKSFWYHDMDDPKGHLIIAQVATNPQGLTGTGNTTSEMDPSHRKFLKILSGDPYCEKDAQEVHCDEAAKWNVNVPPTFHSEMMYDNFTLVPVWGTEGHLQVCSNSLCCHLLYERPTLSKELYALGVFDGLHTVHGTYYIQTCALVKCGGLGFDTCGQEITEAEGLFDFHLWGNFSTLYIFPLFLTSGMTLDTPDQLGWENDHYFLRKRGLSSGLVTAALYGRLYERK", "UniProt Q8CHS2": "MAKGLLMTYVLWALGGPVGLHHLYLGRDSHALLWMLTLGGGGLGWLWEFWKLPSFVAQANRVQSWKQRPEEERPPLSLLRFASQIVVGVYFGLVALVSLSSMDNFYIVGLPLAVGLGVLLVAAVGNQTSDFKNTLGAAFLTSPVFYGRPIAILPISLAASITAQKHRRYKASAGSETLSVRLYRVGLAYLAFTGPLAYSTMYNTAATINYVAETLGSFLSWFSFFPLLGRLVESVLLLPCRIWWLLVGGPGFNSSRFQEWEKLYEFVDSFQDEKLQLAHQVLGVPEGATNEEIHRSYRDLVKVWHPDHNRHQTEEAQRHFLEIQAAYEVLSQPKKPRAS", "UniProt Q8CCJ3": "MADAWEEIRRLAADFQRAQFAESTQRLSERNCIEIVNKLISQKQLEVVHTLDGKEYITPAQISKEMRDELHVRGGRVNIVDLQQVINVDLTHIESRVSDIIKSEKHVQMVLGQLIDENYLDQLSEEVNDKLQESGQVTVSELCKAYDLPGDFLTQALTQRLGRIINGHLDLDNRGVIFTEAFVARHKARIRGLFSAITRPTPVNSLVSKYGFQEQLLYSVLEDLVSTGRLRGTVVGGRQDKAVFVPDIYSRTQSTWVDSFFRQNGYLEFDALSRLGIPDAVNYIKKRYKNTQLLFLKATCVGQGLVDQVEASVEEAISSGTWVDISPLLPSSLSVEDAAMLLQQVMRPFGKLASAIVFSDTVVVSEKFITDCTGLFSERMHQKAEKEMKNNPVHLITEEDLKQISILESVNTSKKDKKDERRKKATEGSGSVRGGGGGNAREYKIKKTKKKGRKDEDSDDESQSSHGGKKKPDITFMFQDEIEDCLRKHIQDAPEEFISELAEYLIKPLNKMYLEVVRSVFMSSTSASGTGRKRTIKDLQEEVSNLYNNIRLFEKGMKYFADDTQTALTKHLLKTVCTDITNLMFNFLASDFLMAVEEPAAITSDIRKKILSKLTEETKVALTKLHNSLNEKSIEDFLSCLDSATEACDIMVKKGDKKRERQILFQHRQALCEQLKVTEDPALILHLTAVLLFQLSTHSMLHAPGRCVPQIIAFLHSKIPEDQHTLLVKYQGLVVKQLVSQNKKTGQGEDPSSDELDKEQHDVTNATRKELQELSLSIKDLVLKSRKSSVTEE", "UniProt Q8CIK8": "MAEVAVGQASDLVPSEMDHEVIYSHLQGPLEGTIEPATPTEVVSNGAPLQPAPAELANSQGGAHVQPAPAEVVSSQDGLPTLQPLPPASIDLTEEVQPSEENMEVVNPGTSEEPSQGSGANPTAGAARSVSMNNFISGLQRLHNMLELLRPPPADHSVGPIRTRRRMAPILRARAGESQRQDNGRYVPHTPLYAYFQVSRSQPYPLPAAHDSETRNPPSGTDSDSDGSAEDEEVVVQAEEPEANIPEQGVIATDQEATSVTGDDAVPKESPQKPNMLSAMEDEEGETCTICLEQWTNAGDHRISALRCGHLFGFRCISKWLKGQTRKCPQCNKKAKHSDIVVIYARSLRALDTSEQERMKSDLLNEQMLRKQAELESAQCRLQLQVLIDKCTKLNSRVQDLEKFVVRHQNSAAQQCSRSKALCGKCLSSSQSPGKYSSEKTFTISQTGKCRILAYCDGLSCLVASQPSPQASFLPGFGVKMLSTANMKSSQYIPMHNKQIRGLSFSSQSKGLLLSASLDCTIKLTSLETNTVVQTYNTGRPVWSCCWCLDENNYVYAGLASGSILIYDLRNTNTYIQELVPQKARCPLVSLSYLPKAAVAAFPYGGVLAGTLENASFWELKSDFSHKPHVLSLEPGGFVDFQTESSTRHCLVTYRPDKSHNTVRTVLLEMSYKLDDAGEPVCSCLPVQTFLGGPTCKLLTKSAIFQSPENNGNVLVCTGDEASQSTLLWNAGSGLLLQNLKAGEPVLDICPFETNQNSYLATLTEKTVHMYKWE", "UniProt Q8K0Z7": "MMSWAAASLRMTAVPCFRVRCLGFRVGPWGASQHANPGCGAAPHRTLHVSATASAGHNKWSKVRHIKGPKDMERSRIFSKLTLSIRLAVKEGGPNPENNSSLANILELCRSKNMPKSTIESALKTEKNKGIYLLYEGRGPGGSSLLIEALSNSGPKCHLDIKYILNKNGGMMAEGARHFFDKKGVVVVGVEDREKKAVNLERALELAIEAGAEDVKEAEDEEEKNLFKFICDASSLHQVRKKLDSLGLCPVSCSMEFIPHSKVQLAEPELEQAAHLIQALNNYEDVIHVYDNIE"},
  "source": "the supplement of paper PMC12819154",
  "about": "“High-throughput peptide-centric local stability assay extends protein–ligand identification to membrane proteins, tissues and bacteria” (Nature Structural & Molecular Biology, 2025)",
  "note": "This is one part of the list. Most values lie at the level of the controls, where differences are scatter.",
  "data": [
    {"compound": "CN[C@@H]1C[C@H]2O[C@@](C)([C@@H]1OC)n1c3ccccc3c3c4c(c5c6ccccc6n2c5c31)C(=O)NC4 [staurosporine]", "assay": "log2 fold change of tryptic peptide abundance, ligand vs vehicle (limited proteolysis) (log2 ratio); higher = more trypsin-susceptible (destabilized)", "conditions": "ligand concentration: 20 uM; sample: mouse liver crude lysate; replicate design: treated separately", "values": [
      {"target": "UniProt Q8CG50 (peptide sequence: RSTFLSVPHWIEDVRK, peptide start residue: 101)", "log2 fold change": -0.564},
      {"target": "UniProt Q8CFV9 (peptide sequence: SLPFFCR, peptide start residue: 3)", "log2 fold change": -0.0937},
      {"target": "UniProt Q8CGY8 (peptide sequence: LQEALMHYK, peptide start residue: 377)", "log2 fold change": 0.205},
      {"target": "UniProt Q8CHG7 (peptide sequence: HSVSIVESNLGVGR, peptide start residue: 1174)", "log2 fold change": -0.293},
      {"target": "UniProt Q8CJ53 (peptide sequence: RPTKDDPEVK, peptide start residue: 57)", "log2 fold change": -0.822},
      {"target": "UniProt Q8CCP0 (peptide sequence: IHTTEFEWPK, peptide start residue: 58)", "log2 fold change": 0.786},
      {"target": "UniProt Q8CGA2 (peptide sequence: LFGKVPLR, peptide start residue: 263)", "log2 fold change": -0.288},
      {"target": "UniProt Q8CI12 (peptide sequence: MPHQPVTAVTR, peptide start residue: 188)", "log2 fold change": 0.594},
      {"target": "UniProt Q8CB77 (peptide sequence: LQPAGAEPTRPR, peptide start residue: 461)", "log2 fold change": 0.107},
      {"target": "UniProt Q8CH18 (peptide sequence: NDRGDQVPNR, peptide start residue: 302)", "log2 fold change": -0.87},
      {"target": "UniProt Q8CFH6 (peptide sequence: SSFPVEQR, peptide start residue: 342)", "log2 fold change": 0.259},
      {"target": "UniProt Q8CG47 (peptide sequence: EKEIQEK, peptide start residue: 475)", "log2 fold change": 0.154},
      {"target": "UniProt Q8CF94 (peptide sequence: VGENAQTEK, peptide start residue: 194)", "log2 fold change": 0.107},
      {"target": "UniProt Q8CGF5 (peptide sequence: AKDSLQNGKLD, peptide start residue: 266)", "log2 fold change": 0.276},
      {"target": "UniProt Q8CD26 (peptide sequence: NILLTDHFQYSR, peptide start residue: 384)", "log2 fold change": -0.157},
      {"target": "UniProt Q8K0E8 (peptide sequence: RKEEPPSLR, peptide start residue: 42)", "log2 fold change": 0.605},
      {"target": "UniProt Q8CD92 (peptide sequence: GKLQELFGR, peptide start residue: 696)", "log2 fold change": 0.359},
      {"target": "UniProt Q8CJ67 (peptide sequence: LLNESGPAHSK, peptide start residue: 28)", "log2 fold change": 0.582},
      {"target": "UniProt Q8CCG1 (peptide sequence: LQRHSTVCGK, peptide start residue: 394)", "log2 fold change": -0.124},
      {"target": "UniProt Q8CIF4 (peptide sequence: QEALELMK, peptide start residue: 57)", "log2 fold change": -0.293},
      {"target": "UniProt Q8CCT4 (peptide sequence: DAQDALVPR, peptide start residue: 167)", "log2 fold change": 0.423},
      {"target": "UniProt Q8CH72 (peptide sequence: VGHVGPLQIGQAVK, peptide start residue: 284)", "log2 fold change": -0.256},
      {"target": "UniProt Q8CJF7 (peptide sequence: ENVGLPEESPR, peptide start residue: 1499)", "log2 fold change": 0.129},
      {"target": "UniProt Q8CHS2 (peptide sequence: VWHPDHNR, peptide start residue: 303)", "log2 fold change": -0.29},
      {"target": "UniProt Q8CCJ3 (peptide sequence: RLAADFQR, peptide start residue: 10)", "log2 fold change": -0.438},
      {"target": "UniProt Q8CIK8 (peptide sequence: HSDIVVIYAR, peptide start residue: 337)", "log2 fold change": -0.151},
      {"target": "UniProt Q8CI95 (peptide sequence: VVLPTFILEKR, peptide start residue: 391)", "log2 fold change": 0.192},
      {"target": "UniProt Q8CGC7 (peptide sequence: VIDPVAPR, peptide start residue: 499)", "log2 fold change": 0.145},
      {"target": "UniProt Q8CEC6 (peptide sequence: QQLPDMEFGR, peptide start residue: 333)", "log2 fold change": 0.603},
      {"target": "UniProt Q8JZV7 (peptide sequence: VSLGHSVADLR, peptide start residue: 207)", "log2 fold change": 0.274},
      {"target": "UniProt Q8K0Z7 (peptide sequence: GVVVVGVEDREK, peptide start residue: 184)", "log2 fold change": 0.208},
      {"target": "UniProt Q8CIE2 (peptide sequence: SYVQQGVYGR, peptide start residue: 102)", "log2 fold change": -0.00686},
      {"target": "UniProt Q8CDM8 (peptide sequence: QPLLPHINVHRPVQK, peptide start residue: 120)", "log2 fold change": 0.206},
      {"target": "UniProt Q8CC88 (peptide sequence: YPSENLHDAITKACLSR, peptide start residue: 671)", "log2 fold change": -0.363},
      {"target": "UniProt Q8CIS0 (peptide sequence: IVEEQRK, peptide start residue: 224)", "log2 fold change": 0.139},
      {"target": "UniProt Q8CG19 (peptide sequence: HGQTQEYLLKPK, peptide start residue: 293)", "log2 fold change": -0.709}
    ]}
  ]
}
